Measurements reported in PubChem BioAssay AID504774 (Drosophila RNAi Screening Center, 2011)
The screen tested about 23,000 reagents; this is a random part of those with a known target gene and a result. 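Values are quantile-normalised luminescence on an arbitrary scale; higher means more cells surviving MMS.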 A plus sign joins genes that one reagent is predicted to hit. Reagent sequences are not shown.

- Assay: 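Knock-downs that shift viability of MMS-exposed cells relative to untreated ones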 (primary screen)
- Cells: Drosophila Kc167 cells
- Reagents: long dsRNA against Drosophila genes, about 0.25 µg dsRNA per well
- Time to read-out: about 6 days: 3 days knock-down, then 3 days with or without MMS
- Conditions: methyl methanesulphonate 0.004% (w/v) for 3 days after knock-down
- Measured: 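ATP-dependent luminescence as a measure of live cells in MMS-exposed wells, quantile normalised within each plate, with replicate values also given as a mean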
- Scale: mean viability with MMS and viability with MMS: higher = more surviving cells after MMS

| target | DRSC id | mean viability with MMS | viability with MMS, replicate 1 | viability with MMS, replicate 2 |
| --- | --- | --- | --- | --- |
| CG8773 | DRSC16444 | 3.36e6 | 3.70e6 | 3.88e6 |
| PPO3 (Prophenoloxidase 3) | DRSC04325 | 3.60e6 | 3.83e6 | 4.29e6 |
| Fas3 (Fasciclin 3) | DRSC01638 | 3.00e6 | 3.60e6 | 3.60e6 |
| Fas3 (Fasciclin 3) | DRSC03326 | 3.32e6 | 3.64e6 | 3.84e6 |
| Fas3 (Fasciclin 3) | DRSC22776 | 3.50e6 | 4.02e6 | 3.94e6 |
| aos (argos) | DRSC11323 | 3.49e6 | 4.00e6 | 3.90e6 |
| fd102C (forkhead domain 102C) | DRSC17203 | 3.55e6 | 3.99e6 | 4.08e6 |
| mRpL20 (mitochondrial ribosomal protein L20) | DRSC09828 | 3.78e6 | 4.20e6 | 4.28e6 |
| Zip71B (Zinc/iron regulated transporter-related protein 71B) | DRSC09686 | 3.52e6 | 4.05e6 | 3.94e6 |
| Nazo | DRSC14343 | 3.42e6 | 3.85e6 | 3.92e6 |
| CG32281 | DRSC08236 | 3.57e6 | 4.01e6 | 4.11e6 |
| qua (quail) | DRSC03598 | 3.49e6 | 3.91e6 | 4.01e6 |
| CG12780 | DRSC06169 | 3.52e6 | 3.93e6 | 4.05e6 |
| anne (anne boleyn) | DRSC17103 | 3.35e6 | 3.75e6 | 3.84e6 |
| AsnS (Asparagine synthetase) | DRSC11468 | 3.55e6 | 4.07e6 | 3.98e6 |
| CG1143 | DRSC08188 | 3.81e6 | 4.23e6 | 4.24e6 |
| CG6813 | DRSC16122 | 3.57e6 | 4.09e6 | 4.00e6 |
| TAF1B | DRSC16001 | 3.49e6 | 3.91e6 | 3.97e6 |
| Cc2d2a (Coiled-coil and C2 domain containing 2A) | DRSC06750 | 3.65e6 | 4.06e6 | 4.19e6 |
| CG4213 | DRSC00641 | 3.47e6 | 3.92e6 | 3.94e6 |
| CG32214 | DRSC09613 | 3.51e6 | 3.88e6 | 4.10e6 |
| CG1137 | DRSC12529 | 3.49e6 | 3.97e6 | 3.95e6 |
| RabGGTa (Rab geranylgeranyltransferase subunit alpha) | DRSC12189 | 3.53e6 | 4.07e6 | 3.94e6 |
| Dtwd2 + Obp84a | DRSC12603 | 3.57e6 | 3.96e6 | 4.15e6 |
| Prp16 (pre-mRNA processing factor 16) | DRSC19538 | 3.59e6 | 3.70e6 | 4.20e6 |
| Prp16 (pre-mRNA processing factor 16) | DRSC19542 | 3.44e6 | 3.91e6 | 3.87e6 |
| CG43066 | DRSC06927 | 3.43e6 | 3.86e6 | 3.84e6 |
| CG5021 | DRSC10469 | 3.47e6 | 3.92e6 | 3.97e6 |
